The test addresses HAM-5-GFP (full length HAM-5, hyphal anastomosis-5, tagged with GFP) (Neurospora crassa) (UniProt V5IN79). Kind of test: co-IP; lysate of 5 hr-old N. crassa germlings; anti-GFP antibody covalently bound to Protein G Dynabeads, overnight at 4°C, washed three times with PBS; blot probed with anti-mCherry antibodies.

Amino acid sequences for entries named in this document (tags omitted).
UniProt V5IN79: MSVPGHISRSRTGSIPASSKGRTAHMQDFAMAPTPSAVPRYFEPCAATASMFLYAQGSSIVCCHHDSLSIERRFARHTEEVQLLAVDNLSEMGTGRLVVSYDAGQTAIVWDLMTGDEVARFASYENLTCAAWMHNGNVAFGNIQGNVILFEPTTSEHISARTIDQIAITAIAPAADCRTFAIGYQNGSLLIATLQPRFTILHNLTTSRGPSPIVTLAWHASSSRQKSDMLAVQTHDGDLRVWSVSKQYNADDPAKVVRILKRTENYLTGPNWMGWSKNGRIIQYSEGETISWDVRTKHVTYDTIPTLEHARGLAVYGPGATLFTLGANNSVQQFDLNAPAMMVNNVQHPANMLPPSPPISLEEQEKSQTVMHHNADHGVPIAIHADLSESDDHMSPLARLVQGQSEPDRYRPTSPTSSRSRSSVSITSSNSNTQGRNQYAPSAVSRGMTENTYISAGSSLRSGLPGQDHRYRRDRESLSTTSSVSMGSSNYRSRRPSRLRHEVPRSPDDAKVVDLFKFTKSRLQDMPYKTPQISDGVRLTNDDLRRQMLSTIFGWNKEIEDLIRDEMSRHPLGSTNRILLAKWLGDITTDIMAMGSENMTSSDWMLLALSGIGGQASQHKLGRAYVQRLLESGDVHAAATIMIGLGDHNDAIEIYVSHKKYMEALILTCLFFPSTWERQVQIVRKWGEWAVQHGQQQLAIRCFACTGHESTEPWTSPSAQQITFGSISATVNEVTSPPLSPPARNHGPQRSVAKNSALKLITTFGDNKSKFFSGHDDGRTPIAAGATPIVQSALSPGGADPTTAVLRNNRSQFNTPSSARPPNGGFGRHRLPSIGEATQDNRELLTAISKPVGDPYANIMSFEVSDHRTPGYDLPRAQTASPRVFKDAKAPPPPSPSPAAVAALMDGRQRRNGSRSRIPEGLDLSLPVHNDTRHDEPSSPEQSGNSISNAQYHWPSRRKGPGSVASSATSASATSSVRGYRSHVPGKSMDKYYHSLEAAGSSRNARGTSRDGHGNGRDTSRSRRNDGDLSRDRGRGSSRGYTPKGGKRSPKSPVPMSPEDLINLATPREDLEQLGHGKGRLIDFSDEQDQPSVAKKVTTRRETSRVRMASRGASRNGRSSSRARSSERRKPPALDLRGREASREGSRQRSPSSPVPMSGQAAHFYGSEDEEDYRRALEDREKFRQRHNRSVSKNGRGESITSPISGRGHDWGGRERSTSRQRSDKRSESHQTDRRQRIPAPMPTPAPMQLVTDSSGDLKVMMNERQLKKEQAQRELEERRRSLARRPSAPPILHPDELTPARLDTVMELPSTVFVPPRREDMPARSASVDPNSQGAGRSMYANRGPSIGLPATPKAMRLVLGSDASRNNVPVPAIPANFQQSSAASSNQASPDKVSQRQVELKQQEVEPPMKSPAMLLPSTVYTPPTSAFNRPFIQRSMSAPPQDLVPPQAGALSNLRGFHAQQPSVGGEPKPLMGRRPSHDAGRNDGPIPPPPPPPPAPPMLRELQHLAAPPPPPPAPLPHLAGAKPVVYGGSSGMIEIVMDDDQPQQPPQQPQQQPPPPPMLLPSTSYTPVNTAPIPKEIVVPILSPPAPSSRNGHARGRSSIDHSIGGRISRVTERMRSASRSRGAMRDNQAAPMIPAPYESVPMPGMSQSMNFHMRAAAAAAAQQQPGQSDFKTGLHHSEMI

These are yes or no findings as the source states them, for the method shown. In cells and extracts the contact can be indirect.

B1: SO-mCherry (protein, UniProt Q7SDK1 1-1304)
chain: MSRSRGVPDEELFISRPRPSDEDCDSPTVEPLRIFKPMSPKLPGAADKASENRYKYPAPPTSSAASASASKPSIAPLPGLPGLPPLPSFPLPPGASSSAAPLPYPDDDLSRPTQASKPARAPYPVDDVRRPSPASSTGRIYSPPPVSSSPQLHNDTTPRLNISPIEKKPGLADRRGAVPKPLQSPDSPNGDDLFAKPLGRPPQQPALQPVHPAQKISNAYQQKPYYPPPGGGNVRMNSEPSIARISSTASTSTTRASRGSPPPPETPIVEPGVVPGGGIEARYAAAGISGTATLTSLQAQTAQSAAAQSRLAQYGGQRPPSQPQQHSQHPALAQSQQQQQPQAQAQPPRPWTPTETPDQQPFGPPTVYQGDAVAQNPQPARPQPQQQNSFNLPKNPEPVSNAPAGSSLQVSVLEQDFQRMQASTPPPAYSSVTPNASSNYPAEKQRPAQTHPATASTTTTTTNNNNNSHSNNATPNPTSRPATTASGSSSRPVNTASPAPASSIHKPKPVAVAASQTPAQQHPGHPAFANEPQHPAQVAHNVGHPALQHTPSLMASTQAPPPLPEGWIAHLDQNSGQYYYIHLATQATQWEFPKGPNPISHEAAPLSPTASTYGNPLASPLLGGKTGLASPMFHPQTPGYAESIMTVASAAPSGFTGPPPSAGVDMYKIMPTNGVYFGPYLRYVNMDLEKGVWHGSILIVTDAPQPPTIHIHLSVDLSPNPRQLIPHNIWTHQRWVFYKYDMDLQMSEHGTERWTYAVTSHLGCTRYEFIVAGRYETGWRMIAHSGNDFAPSTNQNERAKLGGVGFMWKDILQKNVECGGFHVQLGLGDQIYGDRLWREVPILKQWLAIAGRENRKNVPWTARHEEDVTHAYFHYYTSHFDQPFMREAFAQIPHVLQIDDHDIFDGFGSYPEYMQSSAIFKNIGRIAIDMYLLFQHHTTVEMLRNVSSDMDLFTITGAGWHFVKYLGPAVVVVGPDCRSERTQTRVMAGPTYQGLFPKVAMLPPSVQHCIWMLSVPVVYPRLETVETLANTFATGKKAVNTTYNLLGKVTSSVAGVVGGKEVVAHGFKEVKRAVGKSGLMGNVLNQFGEIDIAEELKDLWTHESKDLERTYLIRTLQGIAQQKGIRMTFLSGDVNSAGAGLLHDPSHPSDHKTMYQLITSPIVAAPCSSYLLKALHSGSNSNKLLYVPLNGHKSTHEVSDTKEDMMEIFHTDASGAAREYKKLMARRNYVAIVAYDPDAGVNMGMGMGGLQQTGYAASVHSGGSNGSGLNKLSLAVDFVVQGDGAFTATTKYGPVIVPHLEYGH
Take B1: the binding result was “no binding”.

The record behind these values is PMC4238974.
